This is an account of results in paper PMC4339722, “Analysis of the Link between the Redox State and Enzymatic Activity of the HtrA (DegP) Protein from Escherichia coli” (PLoS ONE, 2015).

In this assay the target is T1, β-casein (UniProt P02666).
T1 sequence: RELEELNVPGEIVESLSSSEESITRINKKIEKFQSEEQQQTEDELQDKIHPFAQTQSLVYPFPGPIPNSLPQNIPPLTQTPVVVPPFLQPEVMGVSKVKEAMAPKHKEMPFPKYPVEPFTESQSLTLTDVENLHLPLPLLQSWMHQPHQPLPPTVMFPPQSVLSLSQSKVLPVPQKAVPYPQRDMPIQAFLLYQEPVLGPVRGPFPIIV
Put plainly: SPR; BIAcore 2000; β-casein immobilized on Sensor Chip CM7; HtrA variants 100, 150, 200, 250, 300 nM run over; HBS-EP (150 mM NaCl, 10 mM HEPES pH 7.4, 3 mM EDTA, 0.005% Surfactant P20); 15 μl/min, 30 μl injections; averaged affinity, binding parameters not calculated; both purified.

Numbering of substitutions follows the chain as printed. In names and notes the source's numbering stands. These are yes or no findings as the source states them, for the method shown. Some entries that bind do so weakly or less than the wild type. Where a sequence is shown, tags or fusion partners need not be part of it.

B1: HtrA-C57A/C69A/S210A–6×His tag (ΔCys variant) (enzyme, UniProt P0C0V0 27-474)
chain: AETSSATTAQQMPSLAPMLEKVMPSVVSINVEGSTTVNTPRMPRNFQQFFGDDSPFAQEGSPFQSSPFAQGGQGGNGGGQQQKFMALGSGVIIDADKGYVVTNNHVVDNATVIKVQLSDGRKFDAKMVGKDPRSDIALIQIQNPKNLTAIKMADSDALRVGDYTVAIGNPFGLGETVTSGIVSALGRSGLNAENYENFIQTDAAINRGNAGGALVNLNGELIGINTAILAPDGGNIGIGFAIPSNMVKNLTSQMVEYGQVKRGELGIMGTELNSELAKAMKVDAQRGAFVSQVLPNSSAAKAGIKAGDVITSLNGKPISSFAALRAQVGTMPVGSKLTLGLLRDGKQVNVNLELQQSSQNQVDSSSIFNGIEGAEMSNKGKDQGVVVNNVKTGTPAAQIGLKKGDVIIGANQQAVKNIAELRKVLDSKPSVLALNIQRGDSTIYLLMQ
Regarding B1, the binding result is on record as “binds”.

B2: HtrA-S210A–6×His tag (oxidized control variant) (enzyme, UniProt P0C0V0 27-474)
chain: B1 chain with A57C, A69C
modifications: disulfide bond Cys57-Cys69 (oxidized)
Take B2: the binding result is “binds”.
